The other results are listed elsewhere or left out. Shown are side measurements of this screen, not its main read-out; they come without a call. Compounds called inactive in the main read-out are mostly missing here. Words in brackets tell the shape of the fitted curve; partial curves, single points and poor fits give uncertain potencies.
Assay: qHTS Assay for Lipid Storage Modulators in Drosophila S3 Cells;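 for cell number change: cells counted by Cell Tracker Red CMTPX staining in the red channel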
Settings: BODIPY lipid droplet fluorescence, 18-24 h; for cell number change: measured here: cell count max response, cells fed with added oleic acid
Outline: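 Drosophila S3 cells got compounds at several concentrations plus oleic acid (400 uM solution). Laser-scanning cytometry with 488 nm excitation read lipid droplets at 500-530 nm and cells at 575-640 nm. Percent activity was relative to 20 uM Triacsin C.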

[1] = measured here: lipid fluorescence (Fed channel) AC50, cells fed with added oleic acid
[2] = measured here: cell number channel AC50, cells fed with added oleic acid

With CC1Cc2ccccc2N1C(=O)c1nn(C)cc1Br (stereo not given) as the compound, how does the cell number change read?
The cell number change was 20.6%.

For COc1ccc(CC(=O)Nc2cc(S(=O)(=O)N3CCCC3)ccc2Cl)c(OC)c1, which cell number change is on record?
Its cell number change is 4.35%.

And the AC50 [1]?
The AC50 was 20.6 µM [rising, single point].

Which cell number change does the source give for CC(C)OCCCN(C)C1CCN(S(=O)(=O)c2ccc(-c3ccc(=O)[nH]n3)s2)CC1 here?
The cell number change was -15.3%.

And the AC50 [1]?
The AC50 was 5.8 µM [falling, single point].

For COc1ccc(S(=O)(=O)N2CCCCC2)cc1NC(=O)CCc1nc2ccccc2c(=O)[nH]1, which cell number change is on record?
Its cell number change is -7.85%.

And the AC50 [2]?
Its AC50 is 0.184 µM [rising, full curve].

What about the AC50 [1] of the same compound?
The AC50 was 0.0651 µM [rising, full curve, poor fit].

Which cell number change does the source give for O=C(CO/N=C/c1ccccc1OC(F)F)NCc1ccco1 here?
Its cell number change is 13.1%.

And the AC50 [1]?
Its AC50 is 18.4 µM [rising, single point].

Which cell number change does the source give for Cc1ccc(S(N)(=O)=O)cc1NC(=O)C(c1ccccc1)c1ccccc1 here?
Its cell number change is -6.91%.

What about the AC50 [1] of the same compound?
The AC50 was 0.231 µM [rising, full curve, poor fit].

What does the source list for CC1CC(C)(C)CC2(C1)NC(=O)N(CC(=O)N1CCN(S(=O)(=O)c3cccs3)CC1)C2=O (stereo not given)?
cell number change: -26.3%; AC50 [1]: 6.51 µM [falling, partial curve, poor fit]

For CC(Cc1cccs1)NC(=S)Nc1ccc(F)cc1 (stereo not given), which cell number change is on record?
Its cell number change is 68.3%.

And the AC50 [2]?
The AC50 was 29.1 µM [rising, single point].

What about the AC50 [1] of the same compound?
Its AC50 is 16.4 µM [rising, partial curve].

Which cell number change does the source give for COCCn1c(SCC#N)nnc1-c1ccccc1 here?
The cell number change was -3.88%.

Which cell number change does the source give for Cc1cc(NC(=O)COC(=O)c2cccc(S(=O)(=O)N(C)C3CCCCC3)c2)no1 here?
Its cell number change is -13.7%.

And the AC50 [1]?
The AC50 was 8.2 µM [falling, partial curve, poor fit].

Which results are given for CCCN1CCC(=O)N([C@H](CSc2ccc(Br)cc2)c2ccccc2)CC1?
cell number change: 18.8%; AC50 [2]: 0.731 µM [rising, full curve, poor fit]

For CC(C)[C@H](NS(=O)(=O)c1cccc(Cl)c1)C(=O)OCC(=O)NC(=O)CN1CCCC1=O, which cell number change is on record?
The cell number change was 14.1%.

And the AC50 [1]?
The AC50 was 1.84 µM [rising, partial curve].

For CCOc1cccc(C2C(C(=O)c3ccc(C)o3)=C(O)C(=O)N2Cc2ccccc2)c1 (stereo not given), which cell number change is on record?
The cell number change was 5.25%.

For Cc1cnc(C(=O)OCC(=O)N(C(C)C)C(C)C)cn1, which cell number change is on record?
Its cell number change is 17.4%.

With COC(=O)C1C(=O)C2=C(CC1C)NC(C)=C(C(=O)OCCOc1ccccc1)C2c1ccc(C)o1 (stereo not given) as the compound, how does the cell number change read?
Its cell number change is -20.7%.

What about the AC50 [1] of the same compound?
The AC50 was 29.1 µM [falling, single point].

Which results are given for COc1ccc(N(CC(=O)N2CCCCC2)S(=O)(=O)c2c(C)nn(C)c2C)cc1?
cell number change: -1.96%; AC50 [2]: 0.651 µM [falling, single point]

What does the source list for CCN(CC)c1ccc2cc(S(=O)(=O)c3ccc(Cl)cc3)c(=O)oc2c1?
cell number change: 3.12%; AC50 [1]: 6.51 µM [rising, single point]

Which cell number change does the source give for CCOc1ccc(NS(=O)(=O)CC23CCC(CC2=O)C3(C)C)cc1 (stereo not given) here?
The cell number change was 9.68%.

And the AC50 [1]?
Its AC50 is 2.06 µM [rising, single point].

What does the source list for CCn1c(NC(=O)c2cccs2)nc2ccccc21?
cell number change: -30.8%; AC50 [2]: 1.64 µM [falling, full curve, poor fit]

For O=C(Nc1cccnc1)c1cc2c(s1)-c1ccccc1OC2, which cell number change is on record?
The cell number change was -56%.

For O=C(N/N=C/c1coc2ccccc2c1=O)c1cc2ccccc2o1, which cell number change is on record?
Its cell number change is 13.5%.

And the AC50 [1]?
The AC50 was 3.66 µM [falling, partial curve].

For CSc1ncccc1C(=O)NC1CCCc2c1cnn2-c1ccc(C)c(C)c1 (stereo not given), which cell number change is on record?
The cell number change was 32.1%.

And the AC50 [2]?
The AC50 was 1.3 µM [falling, partial curve].

And the AC50 [1]?
The AC50 was 1.03 µM [falling, full curve].

Which results are given for COc1ccc2oc3cc(C)[n+]([O-])c(-c4ccc(C)cc4)c3c2c1?
cell number change: 65.7%; AC50 [2]: 32.6 µM [rising, single point]

For CCCNC(=O)C1CCN(S(=O)(=O)c2cccs2)CC1, which AC50 [1] is on record?
The AC50 was 0.58 µM [falling, single point].

Which cell number change does the source give for CCOC(=O)N1CCN(C(=O)CS(=O)Cc2nc(-c3cccc(C)c3)oc2C)CC1 (stereo not given) here?
Its cell number change is 16.1%.

What about the AC50 [2] of the same compound?
The AC50 was 0.00411 µM [rising, full curve, poor fit].

What about the AC50 [1] of the same compound?
The AC50 was 10.3 µM [rising, partial curve, poor fit].

What does the source list for COc1ccc(-n2ncc3c2CC(C)(C)CC3NC(=O)c2oc(C)cc2C)cc1 (stereo not given)?
cell number change: -13.4%; AC50 [1]: 0.517 µM [falling, full curve]

With O=C(c1ccc(-n2cncn2)c([N+](=O)[O-])c1)N1CCN(S(=O)(=O)c2ccccc2F)CC1 as the compound, how does the AC50 [2] read?
The AC50 was 6.51 µM [falling, single point].

Which cell number change does the source give for CC(OC(=O)c1ccc(Cl)c([N+](=O)[O-])c1)C(=O)N1CCN(Cc2ccccc2)CC1 (stereo not given) here?
Its cell number change is 27.3%.

What about the AC50 [1] of the same compound?
Its AC50 is 0.517 µM [rising, single point].

What does the source list for Cc1ccccc1N1CCN(C(=O)c2ccccc2NC(=O)C2CC=CCC2C(=O)O)CC1 (stereo not given)?
cell number change: 20.7%; AC50 [1]: 6.51 µM [rising, partial curve, poor fit]

With CCCCCN(C(=O)CCC(=O)OC(C)C(=O)NC1CCCCC1)c1c(N)n(CCCC)c(=O)[nH]c1=O (stereo not given) as the compound, how does the cell number change read?
The cell number change was 9.94%.

With Cc1cc(=O)oc2c(CN3CCN(C)CC3)c(O)c(Cl)cc12 as the compound, how does the cell number change read?
Its cell number change is -18%.

And the AC50 [2]?
The AC50 was 6.51 µM [falling, partial curve, poor fit].

With O=C1NCC(c2ccccc2)C1C(=O)N/N=C\c1ccc(-c2cccc(Cl)c2Cl)o1 (stereo not given) as the compound, how does the cell number change read?
Its cell number change is -51.8%.

What about the AC50 [2] of the same compound?
The AC50 was 29.1 µM [falling, single point].

What about the AC50 [1] of the same compound?
The AC50 was 0.731 µM [rising, full curve].

For Cc1nn(C(C)(C)C)c(C)c1/C=N/OC(=O)Nc1ccc(Cl)c(Cl)c1, which AC50 [1] is on record?
Its AC50 is 1.3 µM [rising, full curve, poor fit].

Which results are given for CCCc1cc(=O)oc2cc(C)cc(OCc3nn[nH]n3)c12?
cell number change: 0.407%; AC50 [1]: 2.59 µM [rising, single point]

Which cell number change does the source give for Cc1ccc2cc(/C=N/NC(=O)c3ccccc3[N+](=O)[O-])c(Cl)nc2c1 here?
The cell number change was 2.7%.

And the AC50 [1]?
The AC50 was 0.651 µM [falling, single point].

What does the source list for O=[N+]([O-])c1ccc(N2N=C(c3ccccc3)CC2c2ccccc2O)cc1 (stereo not given)?
cell number change: 85.1%; AC50 [2]: 29.1 µM [rising, single point]

With CC(C)CCNC(=O)c1cccc(C(=O)NCCC(C)C)c1 as the compound, how does the AC50 [2] read?
The AC50 was 3.66 µM [rising, single point].

What about the AC50 [1] of the same compound?
The AC50 was 6.51 µM [rising, partial curve].

— PubChem BioAssay AID2685 (National Center for Advancing Translational Sciences (NCATS), 2010)
